Laboratory results: PMC5648532

Protein sequences, listed by entry. Tags and fused reporters are not part of them. Lines headed by an entry give the natural chain unless they say otherwise; changes in a name come on top.
UniProt Q9UBU9: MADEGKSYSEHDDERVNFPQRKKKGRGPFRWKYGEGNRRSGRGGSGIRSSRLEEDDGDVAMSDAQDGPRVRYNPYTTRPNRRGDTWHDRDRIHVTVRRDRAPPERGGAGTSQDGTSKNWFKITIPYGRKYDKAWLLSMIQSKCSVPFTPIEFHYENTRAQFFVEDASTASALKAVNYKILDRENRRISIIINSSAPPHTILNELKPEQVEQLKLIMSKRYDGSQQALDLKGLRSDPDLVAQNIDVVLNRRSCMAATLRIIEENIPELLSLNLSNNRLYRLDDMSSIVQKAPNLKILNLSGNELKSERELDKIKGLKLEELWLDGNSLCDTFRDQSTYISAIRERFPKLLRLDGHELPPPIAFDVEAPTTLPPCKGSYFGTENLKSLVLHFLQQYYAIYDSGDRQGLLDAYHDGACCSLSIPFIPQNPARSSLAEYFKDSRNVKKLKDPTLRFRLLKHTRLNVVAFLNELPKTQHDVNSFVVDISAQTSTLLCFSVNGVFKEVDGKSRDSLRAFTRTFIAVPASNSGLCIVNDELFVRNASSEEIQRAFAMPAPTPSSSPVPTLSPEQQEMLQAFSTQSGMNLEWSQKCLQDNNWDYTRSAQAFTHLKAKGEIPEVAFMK

Assays:
[1] = molecular target: T1, SRSF3 (endogenous) (human (endogenous in HeLa)) (UniProt P84103); assay: co-IP; endogenous IP: lysate of untreated HeLa cells with primary antibody (5 ug/IP) or rabbit IgG control, 4 °C, 2 h, then Dynabeads Protein A; washed, with and without RNase A treatment; western blot
T1 sequence: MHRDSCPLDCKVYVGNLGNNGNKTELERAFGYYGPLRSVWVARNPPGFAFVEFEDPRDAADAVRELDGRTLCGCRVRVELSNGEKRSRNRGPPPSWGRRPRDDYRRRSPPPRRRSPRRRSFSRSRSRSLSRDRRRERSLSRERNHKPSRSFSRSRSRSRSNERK

[2] = molecular target: NXF1 (endogenous) (human (endogenous in HeLa)) (UniProt Q9UBU9); assay: as above

“NXF1 (endogenous) (from UniProt Q9UBU9-1)” was tested, and the binding [1] was “binds”.

B1: SRSF3 (endogenous) (protein, UniProt P84103-1 1-164)
chain: MHRDSCPLDCKVYVGNLGNNGNKTELERAFGYYGPLRSVWVARNPPGFAFVEFEDPRDAADAVRELDGRTLCGCRVRVELSNGEKRSRNRGPPPSWGRRPRDDYRRRSPPPRRRSPRRRSFSRSRSRSLSRDRRRERSLSRERNHKPSRSFSRSRSRSRSNERK
For B1, the binding [2] was “binds”.

These are yes or no findings as the source states them, for the method shown. Binding seen in cells or lysates may run through a third protein. Binding can be weak; no strength is given.
